# This is a selection; strong and weak results do not stand in their true shares. For part of these data: At the low end of the ranking, values are background and their order means little. Some of the results follow. For part of these data: Construct or isoform of the protein are uncertain.
# Tests used:
# [1] = target: T1, ELK4 (UniProt P28324-2); assay: DAPPL (digital affinity profiling via proximity ligation, sequencing); conditions: 10 mM Tris-HCl pH 7.5, 50 mM NaCl, 1 mM DTT, 4% glycerol, room temperature, 30 min; GST-TFs on glutathione beads, 16-mer random dsDNA library, 0.1% …; high values mean tight binding; double strand, one strand shown; scale: fold enrichment (6-mer frequency, TF over GST control)
# T1 sequence: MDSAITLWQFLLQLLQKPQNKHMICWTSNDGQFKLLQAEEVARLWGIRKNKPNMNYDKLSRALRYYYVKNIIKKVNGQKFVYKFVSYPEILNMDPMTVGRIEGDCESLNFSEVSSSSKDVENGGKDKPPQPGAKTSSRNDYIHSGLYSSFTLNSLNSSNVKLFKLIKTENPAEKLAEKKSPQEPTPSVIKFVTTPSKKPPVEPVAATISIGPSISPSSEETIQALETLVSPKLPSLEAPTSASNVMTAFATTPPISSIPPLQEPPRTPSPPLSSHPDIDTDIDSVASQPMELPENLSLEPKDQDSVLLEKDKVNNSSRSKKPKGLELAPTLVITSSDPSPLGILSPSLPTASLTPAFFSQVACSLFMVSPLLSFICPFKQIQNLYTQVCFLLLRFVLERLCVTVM
# [2] = target: T2, ETV4 (UniProt P43268); assay: as above; conditions: 10 mM Tris-HCl pH 7.5, 50 mM NaCl, 1 mM DTT, 4% glycerol, room temperature, 30 min; GST-TFs on glutathione beads, 16-mer random dsDNA library, 0.1% …; high values mean tight binding; double strand, one strand shown; scale: fold enrichment (6-mer frequency, TF over GST control)
# T2 sequence: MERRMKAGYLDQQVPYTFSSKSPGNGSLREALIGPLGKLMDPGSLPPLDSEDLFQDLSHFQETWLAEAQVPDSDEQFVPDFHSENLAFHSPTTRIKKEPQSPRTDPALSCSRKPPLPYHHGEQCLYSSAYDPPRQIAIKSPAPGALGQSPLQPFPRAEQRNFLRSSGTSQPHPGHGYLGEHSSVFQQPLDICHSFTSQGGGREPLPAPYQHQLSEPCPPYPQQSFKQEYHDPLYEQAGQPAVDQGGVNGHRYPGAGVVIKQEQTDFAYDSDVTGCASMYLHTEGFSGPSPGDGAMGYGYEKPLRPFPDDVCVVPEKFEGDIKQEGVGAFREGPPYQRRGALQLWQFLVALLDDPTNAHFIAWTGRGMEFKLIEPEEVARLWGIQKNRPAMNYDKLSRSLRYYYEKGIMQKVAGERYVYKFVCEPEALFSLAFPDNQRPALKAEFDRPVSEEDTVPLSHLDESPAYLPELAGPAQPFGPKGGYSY
Sequence,binding signal [1],binding signal [2]
ACCTGA,1.14,1.17
AACGCA,0.96,1.03
CGATGT,0.99,1.09
TTACGC,1.04,1.1
CATCAT,1.11,1.09
CGTCAA,1.12,1.08

# — article PMC7862700
